The results in this text go back to PMC10695398.

Chains of the proteins cited; added tags and fusions are not shown.
UniProt F5HF68: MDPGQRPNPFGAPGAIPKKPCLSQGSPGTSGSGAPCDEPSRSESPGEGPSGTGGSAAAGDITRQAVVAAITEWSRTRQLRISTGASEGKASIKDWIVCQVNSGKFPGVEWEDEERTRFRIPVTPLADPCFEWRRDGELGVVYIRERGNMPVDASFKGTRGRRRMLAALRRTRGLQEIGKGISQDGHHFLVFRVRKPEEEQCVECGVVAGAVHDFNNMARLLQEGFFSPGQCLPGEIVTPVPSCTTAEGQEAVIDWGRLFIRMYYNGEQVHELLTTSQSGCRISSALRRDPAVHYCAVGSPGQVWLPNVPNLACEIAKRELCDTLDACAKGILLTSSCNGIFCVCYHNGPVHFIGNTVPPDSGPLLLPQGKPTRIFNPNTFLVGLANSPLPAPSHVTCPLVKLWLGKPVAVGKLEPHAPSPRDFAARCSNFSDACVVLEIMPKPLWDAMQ
UniProt P40763: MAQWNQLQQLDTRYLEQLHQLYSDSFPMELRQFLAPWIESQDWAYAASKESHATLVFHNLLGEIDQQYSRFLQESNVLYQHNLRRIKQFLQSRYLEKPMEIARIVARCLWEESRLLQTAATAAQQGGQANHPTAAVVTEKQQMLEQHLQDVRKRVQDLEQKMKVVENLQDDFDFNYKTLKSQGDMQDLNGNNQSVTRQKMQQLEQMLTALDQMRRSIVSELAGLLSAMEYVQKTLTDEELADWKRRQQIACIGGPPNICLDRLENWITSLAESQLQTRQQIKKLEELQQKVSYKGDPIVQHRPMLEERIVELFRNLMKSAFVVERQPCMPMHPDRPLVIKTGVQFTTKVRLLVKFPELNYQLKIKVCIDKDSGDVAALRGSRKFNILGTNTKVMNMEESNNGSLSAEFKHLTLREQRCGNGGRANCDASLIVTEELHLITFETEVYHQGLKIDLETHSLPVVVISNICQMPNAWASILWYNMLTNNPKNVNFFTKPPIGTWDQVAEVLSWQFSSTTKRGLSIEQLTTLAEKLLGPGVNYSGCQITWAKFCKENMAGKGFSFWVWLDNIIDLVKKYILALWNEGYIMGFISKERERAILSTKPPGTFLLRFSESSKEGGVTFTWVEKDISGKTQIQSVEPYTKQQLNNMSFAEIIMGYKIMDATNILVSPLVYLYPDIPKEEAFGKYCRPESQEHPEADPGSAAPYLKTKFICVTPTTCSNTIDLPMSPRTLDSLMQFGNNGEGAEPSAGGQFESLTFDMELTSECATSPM

These are yes or no findings as the source states them, for the method shown. In cells and extracts the contact can be indirect. A yes stands for co-enrichment or nearness to the bait. Other partners may have been found.

This experiment deals with affinity-tagged vIRF-1 of the mass spectrometry analysis (human herpesvirus 8 (HHV-8)) (UniProt F5HF68). The experiment can be described thus: affinity purification with mass spectrometry.

For “cellular STAT3 found in the mass spectrometry analysis (from UniProt P40763 1-770)”, the binding entry was “binds”.
